Assay results published in patent EP4282435A1, “FORMULATIONS OF ACTIVE PHARMACEUTICAL INGREDIENTS AND EXCIPIENTS IN ICELLS VIA HYDROPHOBIC ION PAIRING” (Danmarks Tekniske Universitet, priority 2022, dated 2023).

Excerpt: The chloroform phase was isolated, transferred to a new vial and subsequently chloroform was dried under a gentle flow of nitrogen.

For CCC[C@@H]1C[C@@H](C(=O)N[C@@H]([C@H]2O[C@H](SC)[C@H](O)[C@@H](O)[C@H]2O)[C@H](C)Cl)N(C)C1 [clindamycin, Clindamycin monohydrate HCI, reference compound], the “solubility in ICell” value was “insoluble”.
